Measured values from the supplement of paper PMC6331611.
± gives the standard deviation of the averaged measurements. Over roughly 1,600 compounds, “normalized intracellular growth (luminescence, IQM-normalized) in RAW264.7 macrophages” has its median near 1; the lowest 2% begin near 0.43. The list shows a part of the results.

System: Salmonella enterica serovar Typhimurium SL1344
Test: normalized intracellular growth (luminescence, IQM-normalized) in RAW264.7 macrophages (fraction of plate interquartile mean); higher = more bacterial growth (less inhibition)
Details: 10 µM

Compound | normalized intracellular growth (time point: T3 (3 h)) | normalized intracellular growth (time point: Tfinal (~6 h))
COc1ccc2[nH]c([S+]([O-])Cc3ncc(C)c(OC)c3C)nc2n1 (stereo not drawn) | 1.05 ± 0.044 | 0.995 ± 0.12
C[C@]12CC[C@@H]3c4ccc(O)cc4CC[C@H]3[C@@H]1CC[C@@H]2O | 0.999 ± 0.079 | 1.18 ± 0.13
CCN(CC)C(=O)c1cccc(C)c1 | 1.03 ± 0.016 | 1.117 ± 0.0076
CCN(CC)C(=O)c1cccnc1 | 1.08 ± 0.055 | 1.07 ± 0.069
CCCN(CCC)S(=O)(=O)c1ccc(C(=O)O)cc1 | 1.04 ± 0.093 | 1.09 ± 0.13
CCCCCCCCCCCCCCCCCCCCCCO | 1.07 ± 0.025 | 1.22 ± 0.034
COc1ccc(O)cc1 | 1.05 ± 0.061 | 0.79 ± 0.29
CC(=O)NC(Cc1ccccc1)C(=O)O (stereo not drawn) | 1 ± 0.073 | 1.01 ± 0.064
CCCCCCOC(=O)NC(=N)c1ccc(NCc2nc3cc(C(=O)N(CCC(=O)OCC)c4ccccn4)ccc3n2C)cc1 | 1.02 ± 0.01 | 0.97 ± 0.034
NCCCC(=O)O [gamma-AMINOBUTYRIC ACID] | 0.9762 ± 0.0094 | 1.05 ± 0.096
CC12CCC(CC1=O)C2(C)C (stereo not drawn) | 0.969 ± 0.012 | 1.09 ± 0.035
C[C@@H]1NC(=O)[C@@H](N)CNC(=O)[C@H](C2CCNC(=N)N2)NC(=O)/C(=C/NC(N)=O)NC(=O)[C@H](CNC(=O)CC(N)CCCN)NC1=O.N=C1NCC[C@H]([C@@H]2NC(=O)/C(=C/NC(N)=O)NC(=O)[C@H](CNC(=O)C[C@@H](N)CCCN)NC(=O)[C@H](CO)NC(=O)[C@@H](N)CNC2=O)N1 | 0.976 ± 0.016 | 0.966 ± 0.059
CN[C@@H]1[C@@H](O[C@H]2O[C@H](CO)[C@@H](N)[C@H](O)[C@H]2O)OC2C[C@@H](N)[C@@H](O[C@H]3[C@H](O)[C@@H](O)[C@H](N)C[C@@H]3N)OC2[C@@H]1O (stereo partly drawn) | 0.963 ± 0.061 | 1.02 ± 0.2
Cc1onc(-c2ccccc2Cl)c1C(=O)N[C@@H]1C(=O)N2[C@@H]1SC(C)(C)[C@@H]2C(=O)O | 0.945 ± 0.044 | 0.866 ± 0.064
CN[C@@H]1[C@H](O)[C@H](NC)[C@H]2O[C@@]3(O)C(=O)C[C@@H](C)O[C@H]3O[C@@H]2[C@H]1O | 0.922 ± 0.027 | 1.02 ± 0.047
NS(=O)(=O)c1cc2c(cc1Cl)NC(C(Cl)Cl)NS2(=O)=O (stereo not drawn) | 0.81 ± 0.047 | 1.04 ± 0.06
OCc1cccnc1 | 1.056 ± 0.0048 | 0.97 ± 0.051
CC(C)[N+](C)(CCOC(=O)C1c2ccccc2Oc2ccccc21)C(C)C | 0.962 ± 0.079 | 1.08 ± 0.14
CN1CCC[C@@H]1Cc1c[nH]c2ccc(CCS(=O)(=O)c3ccccc3)cc12 | 1.02 ± 0.077 | 1.13 ± 0.27
CN(C)CCC=C1c2ccccc2COc2ccccc21 | 0.993 ± 0.068 | 0.919 ± 0.081
O=C(N[C@H](CO)[C@H](O)c1ccc([N+](=O)[O-])cc1)C(Cl)Cl | 0.927 ± 0.049 | 0.163 ± 0.022
O=C(O)CCNC(=O)c1ccccc1 | 1.03 ± 0.03 | 1.06 ± 0.15
CCC[C@@H]1C[C@@H](C(=O)N[C@@H]([C@H]2O[C@H](SC)[C@H](O)[C@@H](O)[C@H]2O)[C@H](C)Cl)N(C)C1 | 0.976 ± 0.078 | 0.841 ± 0.06
C[n+]1c2cc(N)ccc2cc2ccc(N)cc21 | 1.2 ± 0.062 | 0.673 ± 0.08
CC(C)(CO)C(O)C(=O)NCCCO (stereo not drawn) | 0.954 ± 0.097 | 0.98 ± 0.12
CCOc1ccc2ccccc2c1C(=O)N[C@@H]1C(=O)N2[C@@H]1SC(C)(C)[C@@H]2C(=O)O | 0.9842 ± 0.0087 | 0.802 ± 0.22
CCN(CC)CCNC(=O)c1cc(Cl)c(N)cc1OC | 1.03 ± 0.093 | 1.27 ± 0.16

Compound | normalized intracellular growth (time point: T3 (3 h)) | normalized intracellular growth (time point: Tfinal (~6 h))
CC1=NN(c2ccccc2)C(=O)C1 | 0.995 ± 0.046 | 0.986 ± 0.21
Cn1cnc2c1c(=O)[nH]c(=O)n2C | 1.01 ± 0.02 | 0.999 ± 0.033
C1CCC(C(CC2CCCCN2)C2CCCCC2)CC1 (stereo not drawn) | 1.02 ± 0.058 | 0.933 ± 0.028
CN1CC(=O)N2[C@H](c3ccc4c(c3)OCO4)c3[nH]c4ccccc4c3C[C@@H]2C1=O | 1.06 ± 0.072 | 0.783 ± 0.27
CCC/C=C\C=C/C(=O)N[C@@H](CC(N)=O)C(=O)NC(CC(N)=O)C(=O)N[C@@H](C(=O)N[C@H](CCCN)C(=O)N[C@@H](C(=O)N[C@@H](C(=O)N[C@@H](C(=O)N[C@H](C(=O)N[C@@H](Cc1ccccc1)C(=O)N[C@H](CCCN)C(=O)NC(C(=O)N[C@H](C(=O)NC(C(=O)NCC(=O)N[C@@H](CC(C)C)C(=O)N[C@H](C)C(=O)NC(C(=O)O)C1CCC(O)C(Cl)C1)C1CCC(O)CC1)[C@H](C)O)C1CCC(O)CC1)[C@H](C)O)C1CCC(O)CC1)C1CCC(O)CC1)[C@H](C)O)C1CCC(O)CC1 (stereo partly drawn) [RAMOPLANIN [A2 shown; 2mM]] | 0.984 ± 0.051 | 1.17 ± 0.15
CC(=O)[C@@]1(O)CC[C@H]2[C@@H]3C[C@H](C)C4=CC(=O)C=C[C@]4(C)[C@@]3(F)[C@@H](O)C[C@@]21C | 0.913 ± 0.062 | 0.873 ± 0.068
CCc1nc(N)nc(N)c1-c1ccc(Cl)cc1 | 1.08 ± 0.073 | 0.963 ± 0.052
COc1cc(C(=O)NCc2ccc(OCCN(C)C)cc2)cc(OC)c1OC | 0.837 ± 0.065 | 0.89 ± 0.03
C#CCN[C@@H]1CCc2ccccc21 | 1.06 ± 0.027 | 1.12 ± 0.33
Cc1cc(C(C)(C)C)c(O)c(C(C)(C)C)c1 | 1.06 ± 0.046 | 0.834 ± 0.12
O=C(O)c1cn(C2CC2)c2cc(N3CCNCC3)c(F)cc2c1=O | 1.14 ± 0.019 | 0.0127 ± 0.00088
CCOc1nc2cccc(C(=O)OCc3oc(=O)oc3C)c2n1Cc1ccc(-c2ccccc2-c2noc(=O)[nH]2)cc1 | 0.977 ± 0.072 | 1.13 ± 0.059
Cc1ccc(NC(=O)c2ccc(CN3CCN(C)CC3)cc2)cc1Nc1nccc(-c2cccnc2)n1 | 0.978 ± 0.042 | 1.16 ± 0.084
O=C(O)C(=O)O.[NH-][C@@H]1CCCC[C@H]1[NH-].[Pt+2] | 1.12 ± 0.059 | 1.2 ± 0.081
CCOC(=O)COc1ccc2c(=O)cc(-c3ccccc3)oc2c1 | 1.03 ± 0.065 | 0.945 ± 0.32
Clc1ccc(C(Cn2ccnc2)OCc2ccsc2Cl)c(Cl)c1 (stereo not drawn) | 0.977 ± 0.046 | 1.18 ± 0.079
C[C@](N)(Cc1ccc(O)c(O)c1)C(=O)O | 1.04 ± 0.018 | 0.982 ± 0.017
O=C1/C(=C/c2cccs2)CCC/C1=C\c1cccs1 | 0.973 ± 0.059 | 1.06 ± 0.036
C[C@H]1c2cccc(O)c2C(=O)C2=C(O)[C@]3(O)C(=O)C(C(N)=O)=C(O)[C@@H](N(C)C)[C@@H]3[C@@H](O)[C@@H]21 | 0.73 ± 0.065 | 0.173 ± 0.025
O=C(O)c1cc(/N=N/c2ccc(O)c(C(=O)O)c2)ccc1O | 0.988 ± 0.024 | 1.11 ± 0.019
CC(=O)NCCCS(=O)(=O)O | 0.948 ± 0.025 | 0.841 ± 0.069
COc1ccc2c(c1OC)C(=O)O[C@@H]2[C@H]1c2c(cc3c(c2OC)OCO3)CCN1C | 0.962 ± 0.046 | 1.0482 ± 0.00081
CCOC(=O)O[C@]1(C(=O)COC(=O)CC)CC[C@H]2[C@@H]3CCC4=CC(=O)C=C[C@]4(C)[C@H]3[C@@H](O)C[C@@]21C | 1.03 ± 0.11 | 0.913 ± 0.12
C=C1c2c(Cl)ccc(O)c2C(=O)C2=C(O)[C@]3(O)C(=O)C(C(N)=O)=C(O)[C@@H](N(C)C)[C@@H]3[C@@H](O)[C@H]12.O=C(O)c1cc(S(=O)(=O)O)ccc1O | 1.01 ± 0.065 | 0.0256 ± 0.0064
CC(C)(C)NCC(O)COc1cccc2c1CCC(=O)N2 (stereo not drawn) | 0.996 ± 0.032 | 1.16 ± 0.1
OC[C@H]1O[C@H](O[C@]2(CCl)O[C@H](CCl)[C@@H](O)[C@@H]2O)[C@H](O)[C@@H](O)[C@H]1Cl | 0.91 ± 0.095 | 0.0259 ± 0.0051
CN1CCC(=C2c3ccccc3CCc3cccnc32)CC1 | 1.03 ± 0.042 | 1.18 ± 0.2

Compound | normalized intracellular growth (time point: T3 (3 h)) | normalized intracellular growth (time point: Tfinal (~6 h))
Nc1nc2ccc(OC(F)(F)F)cc2s1 | 0.966 ± 0.051 | 0.937 ± 0.019
CC(=O)c1ccc2c(c1)N(CCCN(C)C)c1ccccc1S2 | 1.04 ± 0.051 | 1.22 ± 0.087
C=CCNC(N)=S | 1 ± 0.029 | 1.08 ± 0.032
CN(C)CCOC(C)(c1ccccc1)c1ccccn1 (stereo not drawn) | 1.02 ± 0.042 | 1.05 ± 0.027
CC(C)(C#N)c1cc(Cn2cncn2)cc(C(C)(C)C#N)c1 | 1.07 ± 0.041 | 1.32 ± 0.13
Oc1c(I)cc(Cl)c2cccnc12 | 1.025 ± 0.0075 | 1.03 ± 0.068
Nc1ccn([C@H]2CC[C@@H](CO)O2)c(=O)n1 | 0.998 ± 0.045 | 1.32 ± 0.036
COc1cc(/C=C/C(N)=O)cc(OC)c1OC | 1.04 ± 0.084 | 1.03 ± 0.12
CN(C(=O)C(Cl)Cl)c1ccc(OC(=O)c2ccco2)cc1 | 1 ± 0.089 | 0.807 ± 0.32
CC(S)C(=O)NCC(=O)O (stereo not drawn) | 1.02 ± 0.066 | 0.858 ± 0.12
COc1ccc(OC)c(C(O)CNC(=O)CN)c1 (stereo not drawn) | 0.973 ± 0.055 | 1.02 ± 0.11
CN1CCN(CCCN2c3ccccc3Sc3ccc(C(F)(F)F)cc32)CC1 | 0.802 ± 0.025 | 0.991 ± 0.066
CNC[C@H](O)c1ccc(O)c(O)c1 | 1.09 ± 0.078 | 1.3 ± 0.11
OC(CNCC(O)C1CCc2cc(F)ccc2O1)C1CCc2cc(F)ccc2O1 (stereo not drawn) | 0.979 ± 0.034 | 1.14 ± 0.13
CC[C@H](C)[C@H](N)C1=N[C@H](C(=O)N[C@@H](CC(C)C)C(=O)N[C@H](CCC(=O)O)C(=O)N[C@H](C(=O)N[C@H]2CCCCNC(=O)[C@H](CC(N)=O)NC(=O)[C@@H](CC(=O)O)NC(=O)[C@H](Cc3cnc[nH]3)NC(=O)[C@@H](Cc3ccccc3)NC(=O)[C@H]([C@@H](C)CC)NC(=O)[C@@H](CCCN)NC2=O)[C@@H](C)CC)CS1 | 1.05 ± 0.012 | 0.962 ± 0.077
CC(=O)NS(=O)(=O)c1ccc(NC(=O)c2ccccc2C(=O)O)cc1 | 0.935 ± 0.049 | 0.615 ± 0.14
Cc1c(N(C)C)c(=O)n(-c2ccccc2)n1C | 0.974 ± 0.09 | 1.12 ± 0.09
Oc1c(Cl)cc(Cl)c(Cl)c1Cc1c(O)c(Cl)cc(Cl)c1Cl | 1.05 ± 0.025 | 0.983 ± 0.022
COc1ccc(/C=C/C(=O)Nc2ccccc2C(=O)O)cc1OC | 1.26 ± 0.13 | 1.15 ± 0.14
CCOC(=O)C1=C(COCCN)NC(C)=C(C(=O)OC)C1c1ccccc1Cl (stereo not drawn) | 0.736 ± 0.18 | 0.788 ± 0.062
CN1[C@@H]2CC[C@H]1C[C@@H](OC(=O)c1c[nH]c3ccccc13)C2 | 1.07 ± 0.015 | 1.08 ± 0.097
Cc1cccc(C)c1OCC(C)N (stereo not drawn) | 1.064 ± 0.0024 | 1.06 ± 0.14
COc1ccccc1OCC(O)CO (stereo not drawn) | 0.949 ± 0.044 | 1.09 ± 0.048
NC[C@@H]1O[C@H](O[C@H]2[C@@H](O)[C@H](O[C@@H]3[C@@H](O)[C@H](N)C[C@H](N)[C@H]3O[C@H]3O[C@H](CO)[C@@H](O)[C@H](O)[C@H]3N)O[C@@H]2CO)[C@H](N)[C@@H](O)[C@@H]1O | 0.942 ± 0.059 | 0.955 ± 0.04
CC[C@]1(O)C[C@H]2CN(CCc3c([nH]c4ccccc34)[C@@](C(=O)OC)(c3cc4c(cc3OC)N(C=O)[C@H]3[C@@](O)(C(=O)OC)[C@H](OC(C)=O)[C@]5(CC)C=CCN6CC[C@]43[C@@H]65)C2)C1 | 1.01 ± 0.036 | 0.689 ± 0.09

Nine successive entries out of the list so far:
Compound | normalized intracellular growth (time point: T3 (3 h)) | normalized intracellular growth (time point: Tfinal (~6 h))
CC(=O)c1ccc2c(c1)N(CCCN(C)C)c1ccccc1S2 | 1.04 ± 0.051 | 1.22 ± 0.087
C=CCNC(N)=S | 1 ± 0.029 | 1.08 ± 0.032
CN(C)CCOC(C)(c1ccccc1)c1ccccn1 (stereo not drawn) | 1.02 ± 0.042 | 1.05 ± 0.027
CC(C)(C#N)c1cc(Cn2cncn2)cc(C(C)(C)C#N)c1 | 1.07 ± 0.041 | 1.32 ± 0.13
Oc1c(I)cc(Cl)c2cccnc12 | 1.025 ± 0.0075 | 1.03 ± 0.068
Nc1ccn([C@H]2CC[C@@H](CO)O2)c(=O)n1 | 0.998 ± 0.045 | 1.32 ± 0.036
COc1cc(/C=C/C(N)=O)cc(OC)c1OC | 1.04 ± 0.084 | 1.03 ± 0.12
CN(C(=O)C(Cl)Cl)c1ccc(OC(=O)c2ccco2)cc1 | 1 ± 0.089 | 0.807 ± 0.32
CC(S)C(=O)NCC(=O)O (stereo not drawn) | 1.02 ± 0.066 | 0.858 ± 0.12
